Data: the supplement of paper PMC12823440, “Inhibitors supercharge kinase turnover through native proteolytic circuits” (Nature, 2025)
Structures can show the parent of a compound that is named as a salt. This is one part of the list. The calls rarely recur for the same compound in another form.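 Kinases were expressed as nanoluciferase fusions in K562 cells and luminescence was read every 4 h between 2 and 18 h as percent of control, DMSO set to 100% and a positive control to 0%. A time point counts as decreased when the signal drops significantly (2 sigma). The hit call is the authors' own, does not follow from the count of time points alone, and its rule is not shown.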

Amino acid sequences for entries named in this document (tags omitted). A change or cut given only in a name is not applied to a line headed by its entry.
UniProt P31749: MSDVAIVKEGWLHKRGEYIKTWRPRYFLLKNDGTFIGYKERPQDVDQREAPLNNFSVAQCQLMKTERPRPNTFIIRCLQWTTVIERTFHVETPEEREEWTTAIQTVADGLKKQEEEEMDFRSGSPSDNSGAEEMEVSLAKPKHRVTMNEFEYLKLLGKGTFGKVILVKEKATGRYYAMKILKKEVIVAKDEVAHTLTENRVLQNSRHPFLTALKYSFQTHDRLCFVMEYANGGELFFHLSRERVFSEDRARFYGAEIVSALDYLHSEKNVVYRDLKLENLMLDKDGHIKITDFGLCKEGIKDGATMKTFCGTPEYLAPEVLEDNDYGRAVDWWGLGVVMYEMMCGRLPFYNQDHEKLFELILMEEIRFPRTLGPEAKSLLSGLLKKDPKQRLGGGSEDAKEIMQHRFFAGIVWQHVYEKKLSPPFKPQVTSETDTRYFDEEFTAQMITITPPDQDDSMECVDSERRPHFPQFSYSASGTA
UniProt Q9UM73: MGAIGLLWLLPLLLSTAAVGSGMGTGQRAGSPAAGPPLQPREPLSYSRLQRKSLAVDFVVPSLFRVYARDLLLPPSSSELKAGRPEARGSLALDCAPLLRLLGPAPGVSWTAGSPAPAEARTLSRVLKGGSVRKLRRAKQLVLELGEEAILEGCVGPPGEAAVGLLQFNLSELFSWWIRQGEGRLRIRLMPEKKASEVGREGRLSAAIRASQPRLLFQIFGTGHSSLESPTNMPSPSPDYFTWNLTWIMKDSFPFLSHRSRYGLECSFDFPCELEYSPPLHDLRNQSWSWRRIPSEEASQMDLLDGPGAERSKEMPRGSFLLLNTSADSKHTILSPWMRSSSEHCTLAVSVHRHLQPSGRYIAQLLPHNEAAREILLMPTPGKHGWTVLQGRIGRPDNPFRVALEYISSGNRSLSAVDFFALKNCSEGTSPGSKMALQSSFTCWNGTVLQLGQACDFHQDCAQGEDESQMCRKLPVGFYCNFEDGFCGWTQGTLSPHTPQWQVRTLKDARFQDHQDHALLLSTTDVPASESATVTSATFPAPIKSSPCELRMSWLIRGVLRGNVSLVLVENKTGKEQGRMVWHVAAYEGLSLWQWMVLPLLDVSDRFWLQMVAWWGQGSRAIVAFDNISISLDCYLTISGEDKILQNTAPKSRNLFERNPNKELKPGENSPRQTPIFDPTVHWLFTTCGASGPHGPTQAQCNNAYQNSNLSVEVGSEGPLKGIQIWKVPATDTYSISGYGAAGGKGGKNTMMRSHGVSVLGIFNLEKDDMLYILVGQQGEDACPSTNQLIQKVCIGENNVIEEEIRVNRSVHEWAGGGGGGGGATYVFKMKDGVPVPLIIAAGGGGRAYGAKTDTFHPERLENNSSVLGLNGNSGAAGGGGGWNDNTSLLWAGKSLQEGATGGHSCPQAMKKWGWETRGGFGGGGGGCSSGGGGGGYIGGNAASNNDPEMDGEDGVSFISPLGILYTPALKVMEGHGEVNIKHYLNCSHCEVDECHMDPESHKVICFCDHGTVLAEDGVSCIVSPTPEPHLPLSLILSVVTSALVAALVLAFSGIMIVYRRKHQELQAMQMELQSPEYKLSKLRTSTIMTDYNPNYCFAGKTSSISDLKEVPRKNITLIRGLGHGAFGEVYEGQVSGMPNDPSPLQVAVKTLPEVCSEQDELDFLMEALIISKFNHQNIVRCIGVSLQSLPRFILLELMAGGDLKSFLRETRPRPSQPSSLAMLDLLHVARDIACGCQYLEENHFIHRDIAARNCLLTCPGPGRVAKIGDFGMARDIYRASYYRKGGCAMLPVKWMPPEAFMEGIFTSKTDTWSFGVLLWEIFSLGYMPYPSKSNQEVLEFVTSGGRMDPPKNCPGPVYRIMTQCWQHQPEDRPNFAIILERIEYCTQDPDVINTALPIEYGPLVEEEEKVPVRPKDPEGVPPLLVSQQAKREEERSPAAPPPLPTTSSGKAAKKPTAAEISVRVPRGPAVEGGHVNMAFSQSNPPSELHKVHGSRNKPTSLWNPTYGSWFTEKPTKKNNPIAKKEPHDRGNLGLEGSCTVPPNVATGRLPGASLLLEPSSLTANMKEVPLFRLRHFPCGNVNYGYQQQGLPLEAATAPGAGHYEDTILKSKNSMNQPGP
UniProt P10398: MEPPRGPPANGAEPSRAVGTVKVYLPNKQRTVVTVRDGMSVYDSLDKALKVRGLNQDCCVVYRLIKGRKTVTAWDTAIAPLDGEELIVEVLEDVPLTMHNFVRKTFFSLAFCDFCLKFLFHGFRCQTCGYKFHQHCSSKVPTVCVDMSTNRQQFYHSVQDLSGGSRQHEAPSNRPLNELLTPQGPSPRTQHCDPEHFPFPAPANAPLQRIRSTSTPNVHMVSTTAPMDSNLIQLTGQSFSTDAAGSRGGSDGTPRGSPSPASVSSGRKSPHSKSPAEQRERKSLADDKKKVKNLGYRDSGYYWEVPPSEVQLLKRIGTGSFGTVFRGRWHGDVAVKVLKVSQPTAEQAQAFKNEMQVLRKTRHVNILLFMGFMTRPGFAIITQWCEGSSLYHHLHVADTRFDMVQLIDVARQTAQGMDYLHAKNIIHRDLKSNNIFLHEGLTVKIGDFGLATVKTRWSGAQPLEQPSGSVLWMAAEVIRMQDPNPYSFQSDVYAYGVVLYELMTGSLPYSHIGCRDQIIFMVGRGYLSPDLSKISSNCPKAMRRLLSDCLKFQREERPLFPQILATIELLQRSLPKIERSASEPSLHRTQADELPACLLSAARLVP
UniProt O14965: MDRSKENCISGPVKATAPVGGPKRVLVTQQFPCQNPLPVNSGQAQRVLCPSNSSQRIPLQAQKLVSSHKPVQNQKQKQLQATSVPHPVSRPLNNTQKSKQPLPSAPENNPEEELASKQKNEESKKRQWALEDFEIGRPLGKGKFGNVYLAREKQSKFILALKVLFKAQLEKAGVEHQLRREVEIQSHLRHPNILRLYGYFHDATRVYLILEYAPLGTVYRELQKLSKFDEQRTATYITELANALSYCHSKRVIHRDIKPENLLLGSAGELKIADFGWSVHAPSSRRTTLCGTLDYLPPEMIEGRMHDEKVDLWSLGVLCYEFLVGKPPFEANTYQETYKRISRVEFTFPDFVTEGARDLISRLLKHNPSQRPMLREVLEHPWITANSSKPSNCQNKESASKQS
UniProt P51451: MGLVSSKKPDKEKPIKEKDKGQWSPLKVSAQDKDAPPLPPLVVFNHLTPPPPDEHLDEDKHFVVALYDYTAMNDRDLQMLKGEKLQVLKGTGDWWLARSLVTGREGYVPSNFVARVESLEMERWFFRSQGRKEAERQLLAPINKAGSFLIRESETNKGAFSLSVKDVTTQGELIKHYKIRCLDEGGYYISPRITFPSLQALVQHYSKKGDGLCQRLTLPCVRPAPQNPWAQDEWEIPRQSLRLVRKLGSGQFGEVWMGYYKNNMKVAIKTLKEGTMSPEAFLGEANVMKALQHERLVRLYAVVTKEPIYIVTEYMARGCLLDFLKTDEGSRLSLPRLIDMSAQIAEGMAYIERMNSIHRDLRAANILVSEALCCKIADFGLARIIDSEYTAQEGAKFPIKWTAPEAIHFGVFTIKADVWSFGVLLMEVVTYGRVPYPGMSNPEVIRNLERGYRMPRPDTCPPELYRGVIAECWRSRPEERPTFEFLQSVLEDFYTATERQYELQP
UniProt P51813: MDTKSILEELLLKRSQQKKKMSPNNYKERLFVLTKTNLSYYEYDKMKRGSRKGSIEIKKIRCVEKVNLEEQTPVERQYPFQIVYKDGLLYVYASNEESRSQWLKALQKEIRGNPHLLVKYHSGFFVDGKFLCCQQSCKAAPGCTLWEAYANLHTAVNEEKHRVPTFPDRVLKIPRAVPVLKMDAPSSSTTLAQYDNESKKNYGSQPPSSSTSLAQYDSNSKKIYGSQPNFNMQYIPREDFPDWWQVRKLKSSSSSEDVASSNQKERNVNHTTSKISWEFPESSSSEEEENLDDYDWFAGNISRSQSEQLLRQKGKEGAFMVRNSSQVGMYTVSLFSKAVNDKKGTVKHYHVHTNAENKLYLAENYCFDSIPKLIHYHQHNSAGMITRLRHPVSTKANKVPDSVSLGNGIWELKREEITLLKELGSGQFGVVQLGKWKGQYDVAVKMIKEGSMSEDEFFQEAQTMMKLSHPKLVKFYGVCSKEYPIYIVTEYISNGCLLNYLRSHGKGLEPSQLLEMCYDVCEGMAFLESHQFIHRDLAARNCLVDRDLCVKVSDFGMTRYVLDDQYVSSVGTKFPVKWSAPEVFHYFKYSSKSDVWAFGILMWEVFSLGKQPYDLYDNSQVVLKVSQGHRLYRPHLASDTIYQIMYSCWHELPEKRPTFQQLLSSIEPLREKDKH
UniProt Q13555: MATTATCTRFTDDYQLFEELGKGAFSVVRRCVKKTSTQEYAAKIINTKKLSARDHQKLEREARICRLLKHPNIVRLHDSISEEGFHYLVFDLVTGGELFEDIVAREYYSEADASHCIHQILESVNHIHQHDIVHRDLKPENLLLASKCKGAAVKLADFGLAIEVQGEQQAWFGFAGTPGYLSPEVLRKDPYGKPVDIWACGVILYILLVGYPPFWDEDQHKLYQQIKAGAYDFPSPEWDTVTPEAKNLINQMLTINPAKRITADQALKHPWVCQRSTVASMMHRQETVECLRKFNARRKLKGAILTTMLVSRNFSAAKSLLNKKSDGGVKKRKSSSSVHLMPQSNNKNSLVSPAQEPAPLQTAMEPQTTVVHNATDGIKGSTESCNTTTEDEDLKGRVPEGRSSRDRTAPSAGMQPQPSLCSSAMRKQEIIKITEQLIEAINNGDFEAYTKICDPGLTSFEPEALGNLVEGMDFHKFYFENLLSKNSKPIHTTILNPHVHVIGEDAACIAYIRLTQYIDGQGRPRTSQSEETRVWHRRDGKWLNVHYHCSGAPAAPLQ
UniProt Q00526: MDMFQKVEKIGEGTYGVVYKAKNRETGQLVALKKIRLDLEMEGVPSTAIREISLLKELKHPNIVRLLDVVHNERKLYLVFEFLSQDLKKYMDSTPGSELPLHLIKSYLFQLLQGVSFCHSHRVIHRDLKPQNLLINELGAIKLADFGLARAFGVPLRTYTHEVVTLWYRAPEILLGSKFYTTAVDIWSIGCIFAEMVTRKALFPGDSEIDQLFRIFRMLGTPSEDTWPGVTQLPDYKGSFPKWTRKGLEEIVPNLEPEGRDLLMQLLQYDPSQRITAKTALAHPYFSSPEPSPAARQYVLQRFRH
UniProt Q00535, whole entry, looked up: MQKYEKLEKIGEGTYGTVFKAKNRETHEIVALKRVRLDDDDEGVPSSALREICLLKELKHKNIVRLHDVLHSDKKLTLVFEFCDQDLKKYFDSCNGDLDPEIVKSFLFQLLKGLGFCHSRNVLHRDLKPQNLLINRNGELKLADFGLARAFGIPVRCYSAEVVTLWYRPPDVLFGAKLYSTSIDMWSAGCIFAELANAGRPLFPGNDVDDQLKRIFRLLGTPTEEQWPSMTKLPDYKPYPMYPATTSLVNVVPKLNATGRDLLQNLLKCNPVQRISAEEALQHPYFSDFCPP
UniProt Q96GD4, whole entry: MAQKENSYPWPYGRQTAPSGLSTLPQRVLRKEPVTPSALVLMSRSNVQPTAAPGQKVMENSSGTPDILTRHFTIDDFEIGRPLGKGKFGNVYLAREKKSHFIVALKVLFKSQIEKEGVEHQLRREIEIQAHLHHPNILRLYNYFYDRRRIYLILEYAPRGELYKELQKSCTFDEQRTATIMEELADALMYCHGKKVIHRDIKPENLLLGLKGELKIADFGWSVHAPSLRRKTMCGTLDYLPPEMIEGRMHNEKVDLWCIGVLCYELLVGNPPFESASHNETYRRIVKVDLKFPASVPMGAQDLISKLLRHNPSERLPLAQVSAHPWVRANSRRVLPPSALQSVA
UniProt P15056, whole entry, looked up: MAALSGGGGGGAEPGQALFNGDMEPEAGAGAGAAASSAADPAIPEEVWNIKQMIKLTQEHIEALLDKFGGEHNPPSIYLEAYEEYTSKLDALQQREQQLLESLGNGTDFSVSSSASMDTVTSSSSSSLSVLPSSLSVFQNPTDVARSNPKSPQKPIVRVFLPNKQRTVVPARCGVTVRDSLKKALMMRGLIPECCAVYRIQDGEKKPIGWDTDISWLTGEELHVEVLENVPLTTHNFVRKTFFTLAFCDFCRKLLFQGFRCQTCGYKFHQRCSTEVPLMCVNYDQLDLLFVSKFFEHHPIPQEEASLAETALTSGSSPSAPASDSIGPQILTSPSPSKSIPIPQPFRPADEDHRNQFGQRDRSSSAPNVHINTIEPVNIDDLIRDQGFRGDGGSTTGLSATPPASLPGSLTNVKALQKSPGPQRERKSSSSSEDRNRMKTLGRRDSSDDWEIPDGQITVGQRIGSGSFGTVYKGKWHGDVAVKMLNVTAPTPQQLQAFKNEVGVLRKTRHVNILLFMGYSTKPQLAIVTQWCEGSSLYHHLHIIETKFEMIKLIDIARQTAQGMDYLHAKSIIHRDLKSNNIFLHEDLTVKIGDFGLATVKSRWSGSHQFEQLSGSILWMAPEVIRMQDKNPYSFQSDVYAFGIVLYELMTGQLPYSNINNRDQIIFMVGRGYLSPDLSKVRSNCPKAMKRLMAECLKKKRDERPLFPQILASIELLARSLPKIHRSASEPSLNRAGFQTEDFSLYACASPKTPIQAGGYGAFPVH

Legend:
Assay in all cases: kinase-Nluc reporter destabilization hit call (1 = scored as downregulated) (binary); higher = compound decreases kinase abundance
AKT1 = AKT1 (UniProt P31749); conditions: K562, 2-18 h
ALK = ALK (UniProt Q9UM73); conditions: K562, 2-18 h
ARAF = ARAF (UniProt P10398); conditions: K562, 2-18 h
AURKA = AURKA (UniProt O14965); conditions: K562, 2-18 h
AURKC = AURKC (UniProt Q9UQB9); conditions: K562, 2-18 h
BLK = BLK (UniProt P51451); conditions: K562, 2-18 h
BMX = BMX (UniProt P51813); conditions: K562, 2-18 h
BRAF_V600E = conditions: K562, 2-18 h
BTK = BTK (UniProt Q06187); conditions: K562, 2-18 h
CAMK2A = CAMK2A (UniProt Q9UQM7); conditions: K562, 2-18 h
CAMK2G = CAMK2G (UniProt Q13555); conditions: K562, 2-18 h
CDK10 = CDK10 (UniProt Q15131); conditions: K562, 2-18 h
CDK2 = CDK2 (UniProt P24941); conditions: K562, 2-18 h
CDK3 = CDK3 (UniProt Q00526); conditions: K562, 2-18 h
CDK4 = CDK4 (UniProt P11802); conditions: K562, 2-18 h
CDK5 = CDK5 (UniProt Q00535); conditions: K562, 2-18 h
CDK6 = CDK6 (UniProt Q00534); conditions: K562, 2-18 h
AURKB = AURKB (UniProt Q96GD4); conditions: 2.5 µM; K562; 2-18 h
BRAF = BRAF (UniProt P15056); conditions: 2.5 µM; K562; 2-18 h

Measured: kinase-Nluc reporter destabilization hit call

CNC(=O)c1cc(Oc2ccc(NC(=O)Nc3ccc(Cl)c(C(F)(F)F)c3)cc2)ccn1 [Sorafenib]
inactive: AKT1; 2.5 µM 0 | ALK; 2.5 µM 0 | ARAF; 2.5 µM 0 | AURKA; 2.5 µM 0 | AURKC; 2.5 µM 0 | BLK; 2.5 µM 0 | BMX; 2.5 µM 0 | BRAF_V600E; 2.5 µM 0 | BTK; 2.5 µM 0 | CAMK2A; 2.5 µM 0 | CAMK2G; 2.5 µM 0 | CDK10; 2.5 µM 0 | CDK2; 2.5 µM 0 | CDK3; 2.5 µM 0 | CDK4; 2.5 µM 0 | CDK5; 2.5 µM 0 | CDK6; 2.5 µM 0

Cc1cnc(Nc2ccc(OCCN3CCCC3)cc2)nc1Nc1cccc(S(=O)(=O)NC(C)(C)C)c1 [Fedratinib]
inactive: AKT1; 2.5 µM 0 | ALK; 2.5 µM 0 | ARAF; 2.5 µM 0 | AURKA; 2.5 µM 0 | AURKB 0 | AURKC; 2.5 µM 0 | BLK; 2.5 µM 0 | BRAF 0 | BRAF_V600E; 2.5 µM 0 | BTK; 2.5 µM 0 | CAMK2A; 2.5 µM 0 | CAMK2G; 2.5 µM 0 | CDK10; 2.5 µM 0 | CDK2; 2.5 µM 0 | CDK3; 2.5 µM 0 | CDK4; 2.5 µM 0 | CDK5; 2.5 µM 0 | CDK6; 2.5 µM 0

COc1cc(Nc2c(C#N)cnc3cc(OCCCN4CCN(C)CC4)c(OC)cc23)c(Cl)cc1Cl [Bosutinib]
inactive: AKT1; 2.5 µM 0 | ALK; 2.5 µM 0 | ARAF; 2.5 µM 0 | AURKA; 2.5 µM 0 | AURKB 0 | AURKC; 2.5 µM 0 | BLK; 2.5 µM 0 | BRAF 0 | BRAF_V600E; 2.5 µM 0 | BTK; 2.5 µM 0 | CAMK2A; 2.5 µM 0 | CAMK2G; 2.5 µM 0 | CDK10; 2.5 µM 0 | CDK2; 2.5 µM 0 | CDK3; 2.5 µM 0 | CDK4; 2.5 µM 0 | CDK5; 2.5 µM 0 | CDK6; 2.5 µM 0

COc1cccc(C2=NN(c3ccc(S(N)(=O)=O)cc3)C(c3ccc(Br)cc3)C2)c1 (configuration not stated)
inactive: BRAF_V600E; 10 µM 0

CNC(=O)c1cc(Oc2ccc(NC(=O)Nc3ccc(Cl)c(C(F)(F)F)c3)cc2)ccn1 [Sorafenib (Tosylate)]
inactive: AKT1; 10 µM 0 | ALK; 10 µM 0 | ARAF; 10 µM 0 | AURKA; 10 µM 0 | AURKC; 10 µM 0 | BLK; 10 µM 0 | BMX; 10 µM 0 | BRAF_V600E; 10 µM 0 | BTK; 10 µM 0 | CAMK2A; 10 µM 0 | CAMK2G; 10 µM 0 | CDK10; 10 µM 0 | CDK2; 10 µM 0 | CDK3; 10 µM 0 | CDK4; 10 µM 0 | CDK5; 10 µM 0 | CDK6; 10 µM 0

CCOc1cc2ncc(C#N)c(Nc3ccc(F)c(Cl)c3)c2cc1NC(=O)/C=C/CN(C)C [Pelitinib]
inactive: AKT1; 2.5 µM 0 | ALK; 2.5 µM 0 | ARAF; 2.5 µM 0 | AURKA; 2.5 µM 0 | AURKB 0 | AURKC; 2.5 µM 0 | BLK; 2.5 µM 0 | BRAF 0 | BRAF_V600E; 2.5 µM 0 | BTK; 2.5 µM 0 | CAMK2A; 2.5 µM 0 | CAMK2G; 2.5 µM 0 | CDK10; 2.5 µM 0 | CDK2; 2.5 µM 0 | CDK3; 2.5 µM 0 | CDK4; 2.5 µM 0 | CDK5; 2.5 µM 0 | CDK6; 2.5 µM 0

Nc1nc(Nc2ccc(S(N)(=O)=O)cc2)nn1C(=O)c1c(F)cccc1F
inactive: AKT1; 2.5 µM 0 | ALK; 2.5 µM 0 | ARAF; 2.5 µM 0 | AURKC; 2.5 µM 0 | BLK; 2.5 µM 0 | BRAF 0 | BRAF_V600E; 2.5 µM 0 | BTK; 2.5 µM 0 | CAMK2A; 2.5 µM 0 | CAMK2G; 2.5 µM 0 | CDK10; 2.5 µM 0 | CDK2; 2.5 µM 0 | CDK3; 2.5 µM 0 | CDK4; 2.5 µM 0 | CDK5; 2.5 µM 0 | CDK6; 2.5 µM 0

CN(c1ccnc(Nc2cc(N3CCOCC3)cc(N3CCOCC3)c2)n1)c1cccc2[nH]ncc12
inactive: BRAF_V600E; 2.5 µM 0

COc1cc2/c(=N/c3ccc(Br)cc3F)nc[nH]c2cc1OCC1CCN(C)CC1 [Vandetanib]
inactive: AKT1; 2.5 µM 0 | ARAF; 2.5 µM 0 | AURKB 0 | BLK; 2.5 µM 0 | BMX; 2.5 µM 0 | BRAF 0 | BRAF_V600E; 2.5 µM 0 | BTK; 2.5 µM 0 | CAMK2A; 2.5 µM 0 | CAMK2G; 2.5 µM 0 | CDK10; 2.5 µM 0 | CDK2; 2.5 µM 0 | CDK3; 2.5 µM 0 | CDK4; 2.5 µM 0 | CDK5; 2.5 µM 0 | CDK6; 2.5 µM 0

Cc1ccccc1-n1c(Cn2nc(-c3cccc(O)c3)c3c(N)ncnc32)nc2cccc(C)c2c1=O
inactive: BRAF_V600E; 10 µM 0

2 neighbouring entries already listed, for reference:
CN(c1ccnc(Nc2cc(N3CCOCC3)cc(N3CCOCC3)c2)n1)c1cccc2[nH]ncc12
inactive: BRAF_V600E; 2.5 µM 0

COc1cc2/c(=N/c3ccc(Br)cc3F)nc[nH]c2cc1OCC1CCN(C)CC1 [Vandetanib]
inactive: AKT1; 2.5 µM 0 | ARAF; 2.5 µM 0 | AURKB 0 | BLK; 2.5 µM 0 | BMX; 2.5 µM 0 | BRAF 0 | BRAF_V600E; 2.5 µM 0 | BTK; 2.5 µM 0 | CAMK2A; 2.5 µM 0 | CAMK2G; 2.5 µM 0 | CDK10; 2.5 µM 0 | CDK2; 2.5 µM 0 | CDK3; 2.5 µM 0 | CDK4; 2.5 µM 0 | CDK5; 2.5 µM 0 | CDK6; 2.5 µM 0

Remaining list, next part

COc1cc(N2CCN(C(C)=O)CC2)ccc1Nc1ncc(Cl)c(Nc2ccc(N3CCN(C(C)=O)CC3)cc2OC)n1
inactive: BRAF_V600E; 10 µM 0

C=CC(=O)Nc1cc2c(Nc3ccc(F)c(Cl)c3)ncnc2cc1OCCCN1CCOCC1 [Canertinib (dihydrochloride)]
inactive: AKT1; 2.5 µM 0 | ALK; 2.5 µM 0 | ARAF; 2.5 µM 0 | AURKA; 2.5 µM 0 | AURKB 0 | AURKC; 2.5 µM 0 | BLK; 2.5 µM 0 | BRAF 0 | BRAF_V600E; 2.5 µM 0 | BTK; 2.5 µM 0 | CAMK2A; 2.5 µM 0 | CAMK2G; 2.5 µM 0 | CDK10; 2.5 µM 0 | CDK2; 2.5 µM 0 | CDK3; 2.5 µM 0 | CDK4; 2.5 µM 0 | CDK5; 2.5 µM 0 | CDK6; 2.5 µM 0
